Data reported in the supplement of paper PMC9233669.
Variants at the background level are over-represented here.

What was measured:
[1] = system: biotinyl-Leu-oxazolone; assay: self-aminoacylation, catalytic enhancement (BLO) (fold over background); higher = more active; k-Seq, kA / k0A0; sequences stand for … in GGGAAUGGAUCCACAUCUACGAAUUC…UUCACUGCAGACUUGACGAAGCUG
Procedure, shortened: (§1)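 Mutagenized RNA pools (0.43 μM; 21-nt variable region) were treated with 2–1250 μM of each biotinyl-aminoacyl-oxazolone. Conditions were 50 μL HEPES/NaCl/KCl/MgCl2/CaCl2 buffer, 5% acetonitrile, pH 6.9–7.0, room temperature, 90 minutes. Catalytic enhancement, the median kA relative to the uncatalyzed rate, was derived from streptavidin capture, qPCR and Illumina sequencing.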

[2] = system: biotinyl-Ile-oxazolone; assay: self-aminoacylation, catalytic enhancement (BIO) (fold over background); higher = more active; k-Seq, kA / k0A0; sequences stand for … in GGGAAUGGAUCCACAUCUACGAAUUC…UUCACUGCAGACUUGACGAAGCUG
Procedure, shortened: as §1

[3] = system: biotinyl-Phe-oxazolone; assay: self-aminoacylation, catalytic enhancement (BFO) (fold over background); higher = more active; k-Seq, kA / k0A0; sequences stand for … in GGGAAUGGAUCCACAUCUACGAAUUC…UUCACUGCAGACUUGACGAAGCUG
Procedure, shortened: as §1

[4] = system: biotinyl-Val-oxazolone; assay: self-aminoacylation, catalytic enhancement (BVO) (fold over background); higher = more active; k-Seq, kA / k0A0; sequences stand for … in GGGAAUGGAUCCACAUCUACGAAUUC…UUCACUGCAGACUUGACGAAGCUG
Procedure, shortened: as §1

[5] = system: biotinyl-Met-oxazolone; assay: self-aminoacylation, catalytic enhancement (BMO) (fold over background); higher = more active; k-Seq, kA / k0A0; sequences stand for … in GGGAAUGGAUCCACAUCUACGAAUUC…UUCACUGCAGACUUGACGAAGCUG
Procedure, shortened: as §1

[6] = system: biotinyl-Trp-oxazolone; assay: self-aminoacylation, catalytic enhancement (BWO) (fold over background); higher = more active; k-Seq, kA / k0A0; sequences stand for … in GGGAAUGGAUCCACAUCUACGAAUUC…UUCACUGCAGACUUGACGAAGCUG
Procedure, shortened: as §1

Sequence | self-aminoacylation [1] | self-aminoacylation [2] | self-aminoacylation [3] | self-aminoacylation [4] | self-aminoacylation [5] | self-aminoacylation [6]
AAGUUUGCUAUUAAUCGCAAG [Fam3.1 aminoacylation ribozyme variant] | 0.727 | 0.703 | 0.801 | 0.744 | 0.63 | 0.63
AAGUUUGCUAUUAGUGGCAAG [Fam3.1 aminoacylation ribozyme variant] | 0.589 | 0.804 | 0.741 | 0.663 | 0.895 | 0.71
AAGUUUGCUCAUAGUCGCUAG [Fam3.1 aminoacylation ribozyme variant] | 0.807 | 0.817 | 0.967 | 0.866 | 0.928 | 0.89
AAGUUUGCUCAUAGUCGUAAG [Fam3.1 aminoacylation ribozyme variant] | 0.805 | 0.922 | 14.6 | 0.91 | 1.29 | 3.67
AAGUUUGCUCGUAGUCGCAAG [Fam3.1 aminoacylation ribozyme variant] | 0.9 | 0.861 | 1.87 | 0.774 | 0.929 | 1.73
AAGUUUGCUGAUAGUCCCAAG [Fam3.1 aminoacylation ribozyme variant] | 0.786 | 1.17 | 0.972 | 0.847 | 0.626 | 1.08
AAGUUUGCUUAUAGACGCAAG [Fam3.1 aminoacylation ribozyme variant] | 0.495 | 0.591 | 0.84 | 0.585 | 0.559 | 0.629
AAGUUUGCUUAUAGGCGCAAG [Fam3.1 aminoacylation ribozyme variant] | 0.466 | 0.699 | 0.967 | 0.79 | 0.675 | 0.9
AAGUUUGCUUAUAGUCGUAAG [Fam3.1 aminoacylation ribozyme variant] | 0.795 | 0.703 | 1.12 | 0.856 | 0.817 | 0.779
AAGUUUGCUUAUCGUCGCAAG [Fam3.1 aminoacylation ribozyme variant] | 0.746 | 0.821 | 0.924 | 0.838 | 0.842 | 1.23
AAGUUUGGAAAUAGUCGCAAG [Fam3.1 aminoacylation ribozyme variant] | 1.12 | 1.5 | 1.64 | 1.3 | 1.19 | 1.82
AAGUUUGGGAAUAGUCGCAAG [Fam3.1 aminoacylation ribozyme variant] | 1.05 | 1.32 | 1.95 | 1.25 | 0.876 | 1.69
AAGUUUGGUAAUAGUCGAAAG [Fam3.1 aminoacylation ribozyme variant] | 0.79 | 0.898 | 1.65 | 0.969 | 0.881 | 0.952
AAGUUUGGUAAUAUUCGCAAG [Fam3.1 aminoacylation ribozyme variant] | 1.37 | 1.65 | 1.67 | 1.44 | 1.3 | 1.64
AAGUUUGUAAAUAGUCGCAAG [Fam3.1 aminoacylation ribozyme variant] | 1.11 | 0.948 | 1.17 | 0.922 | 1.01 | 1.21
AAGUUUGUUAAUAGUAGCAAG [Fam3.1 aminoacylation ribozyme variant] | 0.766 | 0.903 | 1.18 | 1.01 | 1.03 | 1.09
AAGUUUUCUAAUAGGCGCAAG [Fam3.1 aminoacylation ribozyme variant] | 1.13 | 1.47 | 1.94 | 1.17 | 1.46 | 1.26
AAGUUUUCUAAUAGUCACAAG [Fam3.1 aminoacylation ribozyme variant] | 1.4 | 1.64 | 2.39 | 1.64 | 1.25 | 1.87
AAGUUUUCUAAUAUUCGCAAG [Fam3.1 aminoacylation ribozyme variant] | 1.23 | 1.71 | 1.34 | 1.35 | 1.44 | 1.32
AAUCUCCUAGGUCAUCGGGUG [Fam2.2 aminoacylation ribozyme variant] | 6.83 | 4.3 | 35.1 | 4.51 | 6.93 | 5.91
AAUUCCCUGGUCAUCGAGUGA [Fam2.1 aminoacylation ribozyme variant] | 10.8 | 5.6 | 41.5 | 6.09 | 10.1 | 13
AAUUUUGCUAAUAGUCCCAAG [Fam3.1 aminoacylation ribozyme variant] | 0.905 | 1.3 | 1.75 | 1.03 | 1.21 | 1.26
AAUUUUGCUAUUAGUCGCAAG [Fam3.1 aminoacylation ribozyme variant] | 1.89 | 1.98 | 2.76 | 1.63 | 1.71 | 1.85
ACGUUUGCUAAUAAUCGCAAG [Fam3.1 aminoacylation ribozyme variant] | 1.4 | 1.4 | 1.96 | 1.1 | 1.24 | 0.805
ACUACCCUGGUCAUCGAGUCA [Fam2.1 aminoacylation ribozyme variant] | 0.802 | 0.883 | 0.856 | 0.82 | 1.01 | 0.697
ACUCACCUAGGUCGUCGGGUG [Fam2.2 aminoacylation ribozyme variant] | 2.25 | 2.58 | 6.16 | 2.4 | 2.56 | 3.42
